The source of these data is publication PMC3715410.

Amino acid sequences for entries named in this document (tags omitted). A change or cut given only in a name is not applied to a line headed by its entry.
UniProt Q9Y3Z3: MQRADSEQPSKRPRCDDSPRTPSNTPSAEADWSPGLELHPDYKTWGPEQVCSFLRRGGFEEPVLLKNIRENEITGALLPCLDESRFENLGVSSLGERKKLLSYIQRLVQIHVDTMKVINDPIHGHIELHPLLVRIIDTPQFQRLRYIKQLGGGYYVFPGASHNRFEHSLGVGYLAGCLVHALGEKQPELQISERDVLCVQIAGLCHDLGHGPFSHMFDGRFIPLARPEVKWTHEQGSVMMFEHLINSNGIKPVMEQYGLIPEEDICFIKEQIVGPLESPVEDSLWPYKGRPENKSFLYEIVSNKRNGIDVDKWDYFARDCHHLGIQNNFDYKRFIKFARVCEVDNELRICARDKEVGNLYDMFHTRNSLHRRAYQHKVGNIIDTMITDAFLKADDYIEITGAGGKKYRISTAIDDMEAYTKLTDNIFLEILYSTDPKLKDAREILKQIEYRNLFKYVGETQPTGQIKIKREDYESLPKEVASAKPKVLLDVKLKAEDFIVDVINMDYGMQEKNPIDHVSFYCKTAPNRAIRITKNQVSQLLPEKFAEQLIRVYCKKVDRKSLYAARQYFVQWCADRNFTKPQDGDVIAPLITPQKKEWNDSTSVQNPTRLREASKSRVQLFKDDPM
UniProt Q9Y4B6: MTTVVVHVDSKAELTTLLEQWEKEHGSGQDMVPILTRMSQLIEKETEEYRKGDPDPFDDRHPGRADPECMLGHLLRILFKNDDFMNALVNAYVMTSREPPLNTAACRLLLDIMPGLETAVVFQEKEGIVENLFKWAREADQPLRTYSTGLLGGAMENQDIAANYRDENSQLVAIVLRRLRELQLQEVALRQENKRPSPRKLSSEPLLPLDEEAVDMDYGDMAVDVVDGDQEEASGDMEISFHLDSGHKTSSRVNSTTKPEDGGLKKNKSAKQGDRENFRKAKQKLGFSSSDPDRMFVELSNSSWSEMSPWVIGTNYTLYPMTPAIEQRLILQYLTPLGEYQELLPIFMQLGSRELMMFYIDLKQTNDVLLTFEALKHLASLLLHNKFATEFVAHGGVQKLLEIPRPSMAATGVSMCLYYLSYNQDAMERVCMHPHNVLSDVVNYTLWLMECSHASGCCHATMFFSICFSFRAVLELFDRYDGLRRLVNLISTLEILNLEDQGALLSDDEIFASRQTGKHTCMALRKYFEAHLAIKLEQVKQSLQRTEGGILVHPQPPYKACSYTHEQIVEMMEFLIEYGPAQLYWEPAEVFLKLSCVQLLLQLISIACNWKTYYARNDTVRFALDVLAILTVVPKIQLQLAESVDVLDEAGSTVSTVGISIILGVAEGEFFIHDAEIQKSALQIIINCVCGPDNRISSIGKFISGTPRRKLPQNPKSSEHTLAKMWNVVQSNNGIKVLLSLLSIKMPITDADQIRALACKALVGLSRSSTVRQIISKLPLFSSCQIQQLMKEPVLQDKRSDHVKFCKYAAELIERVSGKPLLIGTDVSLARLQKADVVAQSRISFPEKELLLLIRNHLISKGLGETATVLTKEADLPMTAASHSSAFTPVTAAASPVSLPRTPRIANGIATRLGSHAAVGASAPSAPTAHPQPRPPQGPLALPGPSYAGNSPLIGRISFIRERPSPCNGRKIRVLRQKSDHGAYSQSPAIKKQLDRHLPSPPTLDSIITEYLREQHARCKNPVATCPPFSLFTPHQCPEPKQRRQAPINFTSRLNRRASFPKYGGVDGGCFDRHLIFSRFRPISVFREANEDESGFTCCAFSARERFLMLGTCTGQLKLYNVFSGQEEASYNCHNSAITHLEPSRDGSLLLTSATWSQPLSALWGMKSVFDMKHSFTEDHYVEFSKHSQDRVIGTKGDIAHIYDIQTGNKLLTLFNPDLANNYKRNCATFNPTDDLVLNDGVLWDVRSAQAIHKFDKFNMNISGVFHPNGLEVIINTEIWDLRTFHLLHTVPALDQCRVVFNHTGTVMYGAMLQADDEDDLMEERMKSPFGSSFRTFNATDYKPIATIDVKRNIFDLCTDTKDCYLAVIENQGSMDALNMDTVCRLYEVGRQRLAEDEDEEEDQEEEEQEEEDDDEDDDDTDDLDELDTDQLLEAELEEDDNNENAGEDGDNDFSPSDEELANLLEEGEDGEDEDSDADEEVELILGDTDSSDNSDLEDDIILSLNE
UniProt Q16531: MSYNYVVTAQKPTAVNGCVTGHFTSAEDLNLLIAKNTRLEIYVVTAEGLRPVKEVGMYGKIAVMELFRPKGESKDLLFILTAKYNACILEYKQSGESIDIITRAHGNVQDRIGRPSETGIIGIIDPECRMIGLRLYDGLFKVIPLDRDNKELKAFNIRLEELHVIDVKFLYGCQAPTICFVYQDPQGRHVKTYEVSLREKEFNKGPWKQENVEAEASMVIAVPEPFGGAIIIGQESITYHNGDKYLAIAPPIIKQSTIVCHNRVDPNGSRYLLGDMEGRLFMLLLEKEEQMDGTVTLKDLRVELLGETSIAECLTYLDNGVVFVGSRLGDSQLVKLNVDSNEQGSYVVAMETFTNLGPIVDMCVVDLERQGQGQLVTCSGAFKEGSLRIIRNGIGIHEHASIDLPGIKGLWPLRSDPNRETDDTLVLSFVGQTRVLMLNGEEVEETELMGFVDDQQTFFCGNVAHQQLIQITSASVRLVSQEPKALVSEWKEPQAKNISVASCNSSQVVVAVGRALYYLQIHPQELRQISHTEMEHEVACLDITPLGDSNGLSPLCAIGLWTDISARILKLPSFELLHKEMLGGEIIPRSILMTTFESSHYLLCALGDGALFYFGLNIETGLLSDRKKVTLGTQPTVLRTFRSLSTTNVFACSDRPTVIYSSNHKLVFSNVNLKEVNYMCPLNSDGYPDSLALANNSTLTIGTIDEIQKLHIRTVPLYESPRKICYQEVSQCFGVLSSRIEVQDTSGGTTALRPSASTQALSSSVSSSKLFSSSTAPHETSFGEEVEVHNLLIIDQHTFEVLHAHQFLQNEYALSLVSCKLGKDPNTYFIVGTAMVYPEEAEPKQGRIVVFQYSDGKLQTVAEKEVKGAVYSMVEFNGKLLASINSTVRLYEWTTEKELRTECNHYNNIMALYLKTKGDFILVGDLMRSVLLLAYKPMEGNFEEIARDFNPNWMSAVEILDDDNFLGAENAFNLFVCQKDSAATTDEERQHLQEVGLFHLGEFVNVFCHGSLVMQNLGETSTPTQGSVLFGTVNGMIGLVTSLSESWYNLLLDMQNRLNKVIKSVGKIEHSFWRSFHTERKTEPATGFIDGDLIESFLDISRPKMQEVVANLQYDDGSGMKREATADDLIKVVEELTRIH

These are yes or no findings as the source states them, for the method shown. In cells and extracts the contact can be indirect.

The target of the test is HA-tagged human SAMHD1 ΔC (C-terminal truncation) (human) (UniProt Q9Y3Z3). The test is described as follows: co-IP; HA-SAMHD1 (WT, ΔC, ΔN) transiently co-expressed in 293T cells with the autologous FLAG-Vpx or FLAG-Vpr; immunoprecipitated from whole cell extracts with anti-HA resin; FLAG-Vpx/Vpr, endogenous DCAF1 and DDB1 detected by western blotting. For orientation: In western blotting, separated proteins are transferred to a membrane and probed.

Turning to “DCAF1 (endogenous) (from UniProt Q9Y4B6 1-1507)”, the binding entry was “no binding”.

As to “DDB1 (endogenous) (from UniProt Q16531 1-1140)”, the binding result is “no binding”.
